Structures can show the parent of a compound that is named as a salt. ± gives the standard deviation of the averaged measurements. Some of the results follow. The data scatter; read single values as rough.

Consider 81 compounds from the supplement of paper PMC10398353.

This assay deals with Salmonella enterica serovar Typhimurium ST313 D23580. Nature of the assay: normalized bacterial growth (OD600 20 h minus 0 h, interquartile-mean normalized) (fraction of plate interquartile mean); higher = more bacterial growth (less inhibition). The settings on record: LPM (pH 5.8, low phosphate, low Mg2+), concentration: 10 µM, temperature: 37 °C.
Turning to `COc1ccc(CCCOC(Cn2ccnc2)c2ccc(OC)cc2)cc1` (stereo unspecified), the normalized bacterial growth came to 0.858.
As for `COc1ccc(C(C)=O)c(O)c1`, the figure is 0.933; as for `CCCOC(=O)c1c(-c2ccccc2)nc(CC)c(C(=O)SCC)c1CCC`, 0.893; as for `COc1ccccc1OCCNCC(O)COc1cccc2[nH]c3ccccc3c12` (stereo unspecified) [Carvedilol], 0.664.
The figure for `COc1cc(-c2coc3cc(OCc4ccccc4)c(OC)c(O)c3c2=O)cc(O)c1OC` is 0.919; for `Cc1cc(O)cc(=O)o1` it is 1.15; for `S=P(N1CC1)(N1CC1)N1CC1` it is 1.03.
As for `COc1cc(N)c(Cl)cc1C(=O)NC1CCN(Cc2ccccc2)CC1` [Clebopride maleate], the figure is 1.22; as for `CC(C)[C@@H]1CC[C@@H](C)C[C@H]1OC(=O)c1ccccc1`, 1.13; as for `CC(=O)O[C@H]1CC[C@]2(C)[C@H]3CC=C4[C@@H]5CC(C)(C)CC[C@]5(C(=O)O)CC[C@@]4(C)[C@]3(C)CC[C@H]2C1(C)C`, 1.26.
In the case of `CC(CN1c2ccccc2Sc2ccccc21)N(C)C` (stereo unspecified) [Promethazine hydrochloride], the normalized bacterial growth is 0.681.
The figure for `C=C1[C@H]2CC[C@@]3(C)[C@H](c4ccoc4)OC(=O)C[C@]13O[C@H]1C[C@H](O)C(C)(C)[C@H](CC(=O)OC)[C@]12C` [3-DEOXY-3beta-HYDROXYANGOLENSIC ACID METHYL ESTER] is 1.03.
In the case of `NS(=O)(=O)c1cc2c(cc1C(F)(F)F)NC(Cc1ccccc1)NS2(=O)=O` (stereo unspecified), the normalized bacterial growth stood at 1.21.
As for `O=C(c1ccc(OCCN2CCCCC2)cc1)c1c(-c2ccc(O)cc2)sc2cc(O)ccc12` [Raloxifene hydrochloride], the figure is 1.38.
The figure for `CC(C)=CCc1c(O)cc2occ(-c3ccc4c(c3)OCO4)c(=O)c2c1O` is 1.09; for `CCn1cc(C(=O)O)c(=O)c2cc(F)c(N3CCNCC3)cc21` [Norfloxacin] it is 0.0574; for `O=c1c(O)c(-c2ccc(O)c(O)c2)oc2c(O[C@@H]3O[C@H](CO)[C@@H](O)[C@H](O)[C@H]3O)c(O)cc(O)c12` it is 0.923.
`CN(C)c1nc(N)c(C(=O)NC(=N)N)nc1Cl` ["5-(N,N-Dimethyl)amiloride hydrochloride"] had a normalized bacterial growth of 1.02.
The figure for `CC(=O)O[C@H]1C[C@@H](OC(C)=O)C(C)(C)C2CC(=O)[C@]3(C)C(CC[C@@]4(C)[C@H](C(=O)O)OC(=O)C5OC543)[C@]21C` (stereo partly specified) is 1.23; for `Cc1nc2c(OCc3ccccc3)cccn2c1CC#N` it is 0.979.
As for `CCCCCCCCCCCCCCCCC(C(=O)O)C(O)(CC(=O)O)C(=O)O` (stereo unspecified), the figure is 1.4.
Turning to `CCOC(=O)C1=C(C)NC(C)=C(C(=O)OC)C1c1cccc([N+](=O)[O-])c1` (stereo unspecified) [Nitrendipine], the normalized bacterial growth stood at 1.09.
The figure for `CC1(C)S[C@@H]2[C@H](N3C(=O)[C@@H](c4ccccc4)NC3(C)C)C(=O)N2[C@H]1C(=O)O` is 1.13.
`O=C(O)CCC/C=C\C[C@@H]1[C@@H](/C=C/[C@H](O)C2Cc3ccccc3C2)[C@@H](F)C[C@@H]1O` displayed a normalized bacterial growth of 0.746.
`CC1=C(C(=O)O)N2C(=O)[C@@H](NC(=O)[C@H](N)c3ccc(O)cc3)[C@H]2SC1` [Cefadroxil] had a normalized bacterial growth of 1.
The figure for `CC1=C(C(=O)O)N2C(=O)[C@@H](NC(=O)[C@H](N)c3ccc(O)cc3)[C@H]2SC1` is 1.18; for `OC[C@H]1O[C@@H](O[C@H]2[C@H](O)[C@@H](O)[C@@H](O)O[C@@H]2CO)[C@H](O)[C@@H](O)[C@@H]1O` it is 1.18; for `C=CCN1CCCC1CNC(=O)c1cc2nn[nH]c2cc1OC` (stereo unspecified) [Alizapride HCl] it is 1.22.
Take `CC1=CCCC(C)=CCC(C)(C)C=CC1` [HUMULENE (alpha)]: the normalized bacterial growth is 0.943.
In turn, `COc1cc(C)c2c(=O)cc(-c3ccccc3)oc2c1` came in with a normalized bacterial growth of 0.714.
As for `CC(C)(Oc1ccc(C2CC2(Cl)Cl)cc1)C(=O)O` (stereo unspecified) [Ciprofibrate], the figure is 0.988; as for `C[C@@H]1CC2C3C[C@H](F)C4=CC(=O)C=C[C@]4(C)[C@@]3(F)[C@@H](O)C[C@]2(C)[C@@]1(O)C(=O)COC(=O)C(C)(C)C` (stereo partly specified), 0.96; as for `CCC(C)(CN(C)C)OC(=O)c1ccccc1` (stereo unspecified) [Amyleine hydrochloride], 0.904.
The figure for `C=C(NC(=O)C(=C)NC(=O)c1csc(C2=N[C@@H]3c4csc(n4)[C@H]4NC(=O)c5csc(n5)[C@H]([C@](C)(O)[C@@H](C)O)NC(=O)[C@H]5CSC(=N5)/C(=C/C)NC(=O)[C@H]([C@@H](C)O)NC(=O)c5csc(n5)[C@]3(CC2)NC(=O)[C@H](C)NC(=O)C(=C)NC(=O)[C@H](C)NC(=O)[C@H]([C@@H](C)CC)N[C@@H]2C=Cc3c([C@H](C)O)cc(nc3[C@H]2O)C(=O)O[C@@H]4C)n1)C(N)=O` is 0.802.
As for `C=C(NC(=O)C(=C)NC(=O)c1csc(C2=N[C@@H]3c4csc(n4)[C@H]4NC(=O)c5csc(n5)[C@H]([C@](C)(O)[C@@H](C)O)NC(=O)[C@H]5CSC(=N5)/C(=C/C)NC(=O)[C@H]([C@@H](C)O)NC(=O)c5csc(n5)[C@]3(CC2)NC(=O)[C@H](C)NC(=O)C(=C)NC(=O)[C@H](C)NC(=O)[C@H]([C@@H](C)CC)N[C@@H]2C=Cc3c([C@H](C)O)cc(nc3[C@H]2O)C(=O)O[C@@H]4C)n1)C(N)=O` [Thiostrepton], the figure is 0.924; as for `Cn1c(=O)c2c(ncn2CC(O)CO)n(C)c1=O` (stereo unspecified), 1.24.
Compound `CCCc1nc(C(C)(C)O)c(C(=O)OCc2oc(=O)oc2C)n1Cc1ccc(-c2ccccc2-c2nnn[nH]2)cc1` gave a normalized bacterial growth of 0.847.
For `NC(=O)c1cccnc1`, the normalized bacterial growth amounted to 1.09.
As for `NC(=O)C1(N2CCCCC2)CCN(CCCC(=O)c2ccc(F)cc2)CC1`, the figure is 0.881; as for `CNC1(C)C2CCC(C2)C1(C)C` (stereo unspecified) [Mecamylamine hydrochloride], 0.976.
The figure for `CCCCCCCCCCCCCCCC[N+](C)(C)C` is 1.23; for `COc1ccc([C@H]2Oc3cc(OC)cc(OC)c3C[C@H]2O)cc1` it is 0.876; for `CC(C)N(CCC(=O)c1ccc2ccccc2c1)Cc1ccccc1` it is 0.449.
The figure for `CC[C@]12CCCN3CCc4c(n(c5ccccc45)[C@@](O)(C(=O)OC)C1)[C@@H]32` is 1.11 ± 0.097.
For `COc1ccc2c(c1)OCC(Cc1ccc(OC)c(OC)c1)C2=O` (stereo unspecified), the normalized bacterial growth is 0.831.
As for `O=c1[nH]c(=O)n([C@H]2C[C@H](O)[C@@H](CO)O2)cc1/C=C/Br` [(E)-5-(2-Bromovinyl)-2'-deoxyuridine], the figure is 0.835.
The figure for `CCOc1nc2cccc(C(=O)OC(C)OC(=O)OC3CCCCC3)c2n1Cc1ccc(-c2ccccc2-c2nn[nH]n2)cc1` (stereo unspecified) is 1.36; for `COc1c(O)cc(O)c2c(=O)cc(-c3ccccc3)oc12` it is 0.961; for `O=c1cc(O)cc(/C=C/c2ccc(O)c(O)c2)o1` [Hispidin] it is 1.17.
Compound `Nc1ccc(S(N)(=O)=O)cc1` yielded a normalized bacterial growth of 1.16.
As for `Nc1ncnc2c1ncn2[C@H]1C[C@H](O)[C@@H](CO)O1`, the figure is 0.984; as for `CC(CCc1ccc(O)cc1)NCCc1ccc(O)c(O)c1` (stereo unspecified), 0.77; as for `CC(CCc1ccc(O)cc1)NCCc1ccc(O)c(O)c1` (stereo unspecified) [Dobutamine hydrochloride], 0.828.
The figure for `CCCCC#Cc1nc(N)c2ncn([C@@H]3O[C@H](C(=O)NCC)[C@@H](O)[C@H]3O)c2n1` is 1.05; for `O=C(O)/C=C/c1ccccc1` it is 1.19.
Compound `N[C@@H](CCC(=O)N[C@@H](CSN=O)C(=O)NCC(=O)O)C(=O)O` [S-Nitrosoglutathione] registered a normalized bacterial growth of 0.81.
As for `COC1=C(OC)C(=O)c2ccccc2C1=O` ["2,3-Dimethoxy-1,4-naphthoquinone"], the figure is 1.01.
Turning to `O=C(O)/C=C/C=C/c1ccc2c(c1)OCO2`, the normalized bacterial growth is 1.06.
As for `CC(C)CCC[C@@H](C)[C@H]1CC[C@H]2[C@@H]3CC=C4C[C@@H](O)CC[C@]4(C)[C@H]3CC[C@]12C`, the figure is 0.993; as for `CCCCCC1C(=O)CCC1CC(=O)O` (stereo unspecified), 0.893.
The figure for `Nc1ccn([C@@H]2O[C@H](CO)[C@@H](O)[C@H]2O)c(=O)n1` is 1.
The compound `CN(C)CCC(c1ccccc1)c1ccccn1` (stereo unspecified) [Pheniramine maleate] registered a normalized bacterial growth of 1.03.
The figure for `C=CC(C1=CC(=O)C(OC)=CC1=O)c1ccc(O)cc1` (stereo unspecified) is 0.947; for `C=CCc1ccccc1OCC(O)CNC(C)C` (stereo unspecified) [Alprenolol hydrochloride] it is 1.05; for `NC[C@H]1CC[C@H](C(=O)O)CC1` it is 1.06.
As for `CCCCOc1ccc(CC(=O)NO)cc1`, the figure is 1.21; as for `CC(=O)OC(C)C[N+](C)(C)C` (stereo not drawn) [Acetyl-beta-methylcholine chloride], 1.13.
The figure for `CCCCC[C@H](CC(=O)NO)C(=O)N[C@H](C(=O)N1CCC[C@H]1CO)C(C)C` [Actinonin] is 0.734.
In the case of `Cc1nc(N=Nc2ccc(S(=O)(=O)O)cc2S(=O)(=O)O)c(COP(=O)(O)O)c(C=O)c1O`, the normalized bacterial growth was found to be 0.707.
With `Cc1ccc(O)c([C@H](CCN(C(C)C)C(C)C)c2ccccc2)c1`, the normalized bacterial growth came out at 1.28.
The figure for `CCN1/C(=C/C(C)=O)Sc2ccc(OC)cc21` is 1.02; for `CN(C)C(=O)N=NC(=O)N(C)C` ["N,N,N',N'-Tetramethylazodicarboxamide"] it is 0.891; for `Nc1nc(=O)c2c([nH]1)NCC(CNc1ccc(C(=O)N[C@@H](CCC(=O)O)C(=O)O)cc1)N2C=O` (stereo partly specified) it is 1.1.
The figure for `O=C(O)c1cc(=O)c2c(OCC(O)COc3cccc4oc(C(=O)O)cc(=O)c34)cccc2o1` is 1.28.
`COc1cc2c(cc1OC)[C@H]1[C@@H](C)c3ccc(OC)c(OC)c3CN1CC2` came in with a normalized bacterial growth of 1.05.
With `C[C@H](CCC(=O)NCC(=O)O)[C@H]1CC[C@H]2[C@@H]3[C@H](O)C[C@@H]4C[C@H](O)CC[C@]4(C)[C@H]3C[C@H](O)[C@]12C` [Glycocholic acid], the normalized bacterial growth amounted to 0.854.
The figure for `Clc1ccc(COC(Cn2ccnc2)c2ccc(Cl)cc2Cl)cc1` (stereo unspecified) is 1.42; for `Clc1ccccc1C(c1ccccc1)(c1ccccc1)n1ccnc1` [Clotrimazole] it is 0.414.
The figure for `NC(=O)NO` [Hydroxyurea] is 1.01; for `CO/N=C1\CN(c2nc3c(cc2F)c(=O)c(C(=O)O)cn3C2CC2)CC1CN` (stereo unspecified) it is 0.224; for `CC(C)=CCC/C(C)=C/COc1ccc2ccc(=O)oc2c1` it is 0.561.
